Laboratory results: PubChem BioAssay AID652243 (Drosophila RNAi Screening Center, 2013)
Assay: 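Fly genes required for human androgen receptor driven transcription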 (primary screen). Cell system: Drosophila S2R+ cells. Reagents: long dsRNA against Drosophila genes. Time to read-out: 72 h (48 h, then 24 h hormone). Conditions: synthetic androgen R1881 at 10 nM for 24 h. Measurement: 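Firefly light from an androgen-responsive reporter and Renilla control light per well, raw and unnormalised, for each of two replicates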. Reading the numbers: firefly reporter light: higher = more light from androgen-responsive reporter; Renilla control light: higher = more constitutive control signal (cell number, transfection). Call rule: 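Across duplicate plates, a knock-down whose log firefly/Renilla ratio shifted a set fold down or up from the GFP/LacZ control mean was a hit; the downward cut appears as both 1.5 and 3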. Calls: active = hit: reporter lowered or raised; inactive = no hit.
The deposit covers about 24,000 reagents; below is an unselected part of those with a known target gene and a result. In the full data, 246 (1%) were called active. 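Plates not normalised; calls are printed but the firefly/Renilla ratio behind them is not deposited; fold cut for lowering reported inconsistently.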 Raw values are not corrected between plates. The numbers tell different reagents against one gene apart. A plus sign joins genes that one reagent is predicted to hit. No sequences are given here. The record does not give: the amount of reagent.

gene knocked down	reagent	firefly reporter light, replicate 1	firefly reporter light, replicate 2	Renilla control light, replicate 1	Renilla control light, replicate 2	Call
stnB + stnA	1	4.35e5	5.28e5	2.15e6	3.57e6	inactive
stnB + stnA	2	5.24e5	4.94e5	1.77e5	2.69e5	inactive
stnB + stnA	3	99387	1.30e5	2.46e5	2.62e5	inactive
topi	1	63257	94123	1.33e6	1.83e6	inactive
CG33288	1	1.58e5	1.56e5	3.12e5	3.12e5	inactive
Sap-r	1	4.24e5	3.68e5	3.20e6	3.65e6	inactive
Sap-r	2	5.91e5	7.16e5	1.64e5	1.92e5	inactive
Sap-r	3	3.25e5	4.23e5	6.91e5	6.86e5	inactive
alpha-PheRS	1	92314	63712	3.96e5	4.86e5	inactive
alpha-PheRS	2	5.26e5	4.22e5	5.94e5	8.10e5	inactive
Rfk	1	25068	93256	3.00e5	3.82e5	inactive
Rfk	2	3.56e5	3.03e5	1.16e6	1.06e6	inactive
ND-15	1	1.09e6	8.76e5	5.40e6	2.28e6	inactive
GstE3	1	73358	90637	1.44e6	1.44e6	inactive
CG10646	1	4.41e5	4.87e5	3.02e6	3.50e6	inactive
Reg-5	1	5.16e5	1.23e6	8.43e5	1.72e6	inactive
CG17929	1	2.20e5	1.93e5	2.14e6	2.33e6	inactive
CG31926	1	83162	1.41e5	6.22e5	8.97e5	inactive
CG31926	2	5.82e5	3.17e5	1.95e6	1.56e6	inactive
CG13049	1	2.41e5	2.54e5	2.25e6	1.73e6	inactive
CG13049	2	1.47e6	1.11e6	1.33e6	1.09e6	inactive
Ir48a	1	1.97e5	1.67e5	3.75e5	3.81e5	inactive
Nedd8	1	1.67e5	1.46e5	1.77e6	1.22e6	inactive
CG17560	1	2.15e5	1.86e5	3.48e6	2.65e6	inactive
PI31	1	1.14e6	1.43e6	1.86e6	1.70e6	inactive
CG9673	1	1.74e5	3.86e5	2.18e6	2.98e6	inactive
eEF1alpha1	1	2.30e5	2.04e5	1.46e6	1.31e6	inactive
eEF1alpha1	2	4.00e5	3.07e5	3.61e5	3.24e5	inactive
Lap1	1	1.02e5	81849	1.84e6	1.84e6	inactive
PlexA	1	1.10e5	1.04e5	5.16e5	4.46e5	inactive
CG3687	1	41828	91304	8.23e5	8.23e5	inactive
CG3687	2	3.75e5	5.24e5	1.27e6	1.27e6	inactive
CG3687	3	7.57e5	7.76e5	1.16e6	1.24e6	inactive
CG12713	1	40628	44173	5.83e5	4.43e5	inactive
CG12713	2	9.67e5	9.54e5	9.73e5	9.97e5	inactive
RhoGAP18B	1	1.98e5	2.36e5	8.95e5	4.13e5	inactive
RhoGAP18B	2	1.78e5	1.39e5	8.64e5	4.04e5	inactive
RhoGAP18B	3	1.88e5	1.84e5	5.38e5	3.17e5	inactive
RhoGAP18B	4	47038	15720	2.18e5	1.32e5	inactive
RhoGAP18B	5	1.02e6	8.72e5	8.47e5	7.21e5	inactive
pwn	1	4.63e5	7.98e5	1.29e6	1.83e6	inactive
pwn	2	2.76e5	3.13e5	4.25e5	3.99e5	inactive
CG12824	1	4.56e5	3.00e5	3.21e6	2.07e6	inactive
CG14106	1	1.72e5	1.34e5	2.41e6	2.03e6	inactive
CG15247	1	1.62e5	2.07e5	2.35e6	2.57e6	inactive
CG15247	2	5.77e5	5.78e5	1.03e6	1.19e6	inactive
CG13186	1	3.38e5	2.23e5	2.34e6	2.42e6	inactive
CG30156	1	1.25e5	98247	4.25e5	5.26e5	inactive
Atx2	1	5.58e5	5.46e5	1.29e6	1.33e6	inactive
Dh31-R	1	2.05e5	2.24e5	1.26e6	1.43e6	inactive
Dh31-R	2	7.38e5	7.47e5	4.57e5	6.37e5	inactive
lcs	1	1.88e5	2.40e5	4.07e5	5.05e5	inactive
lcs	2	6.01e5	4.22e5	4.11e5	4.70e5	inactive
Dpy-30L2	1	2.47e5	2.22e5	3.40e6	2.73e6	inactive
Dpy-30L2	2	7.15e5	1.08e6	7.12e5	7.09e5	inactive
CG3419 (retired record)	1	2.44e5	6.55e5	1.16e6	1.12e6	inactive
CG3419 (retired record)	2	3.85e5	4.10e5	1.78e6	1.94e6	inactive
COX6AL2 + Ir75d	1	1.83e5	1.50e5	2.25e6	1.49e6	inactive
Tsp96F	1	88221	1.01e5	8.94e5	7.98e5	inactive
Nulp1	1	1.14e6	9.19e5	1.13e6	1.23e6	inactive
CG31872	1	1.08e5	2.18e5	6.46e5	8.52e5	inactive
CG31872	2	3.89e5	4.88e5	1.94e6	2.19e6	inactive
CG3770	1	1.00e6	1.03e6	1.29e6	1.58e6	inactive
CG6225	1	78878	1.11e5	1.49e6	1.88e6	inactive
bap	1	2.52e5	2.87e5	2.91e6	3.19e6	inactive
bap	2	2.79e5	3.81e5	5.63e5	5.46e5	inactive
Sr-CIII	1	7.40e5	8.08e5	2.34e6	1.82e6	inactive
Rbbp5	1	1.33e5	94334	1.35e6	1.63e6	inactive
alphaTub85E	1	1.78e5	2.45e5	3.27e6	3.25e6	inactive
alphaTub85E	2	2.56e5	4.39e5	5.32e5	5.90e5	inactive
RpS18	1	83339	59424	1.02e6	6.42e5	inactive
Bet3	1	2.24e5	1.82e5	2.38e6	1.57e6	inactive
Spn85F	1	5.01e5	5.16e5	3.02e6	3.95e6	inactive
Hsp27	1	1.09e6	3.26e5	1.00e6	3.56e5	inactive
Hsp27	2	2.80e5	2.94e5	4.08e5	4.31e5	inactive
